These are yes or no findings as the source states them, for the method shown. Some results given as binding are weak or reduced against the parent protein; the word gives no strength. Where a sequence is shown, tags or fusion partners need not be part of it.
Key:
GDF11 [1] = biological target: T1, GDF11 (UniProt O95390); assay: SPR (Biacore), worded summary of the table
T1 sequence (looked up): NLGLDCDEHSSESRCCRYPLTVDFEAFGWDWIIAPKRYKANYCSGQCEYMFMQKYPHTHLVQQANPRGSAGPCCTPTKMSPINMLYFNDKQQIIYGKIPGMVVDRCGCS

BMP6 [2] = biological target: T2, BMP6 (UniProt P22004 375-513, limits assumed); assay: SPR (Biacore), worded summary of the table
T2 sequence (looked up): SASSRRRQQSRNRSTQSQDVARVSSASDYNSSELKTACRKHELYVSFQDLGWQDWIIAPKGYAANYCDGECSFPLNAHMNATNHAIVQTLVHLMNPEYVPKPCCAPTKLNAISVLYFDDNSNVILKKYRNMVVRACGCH

BMP10 [3] = biological target: T3, BMP10 (UniProt O95393); assay: SPR (Biacore), worded summary of the table
T3 sequence (looked up): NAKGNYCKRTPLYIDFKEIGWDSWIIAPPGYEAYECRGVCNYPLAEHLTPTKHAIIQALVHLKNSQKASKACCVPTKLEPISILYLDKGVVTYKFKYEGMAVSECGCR

GDF3 [4] = biological target: T4, GDF3 (UniProt Q9NR23); assay: SPR (Biacore), worded summary of the table
T4 sequence (looked up): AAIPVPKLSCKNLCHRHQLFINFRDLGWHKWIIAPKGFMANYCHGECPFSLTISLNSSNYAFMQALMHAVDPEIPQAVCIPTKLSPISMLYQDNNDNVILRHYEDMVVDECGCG

activin B [5] = biological target: T5, activin B (UniProt P09529 293-407); assay: SPR (Biacore), worded summary of the table
T5 sequence (looked up): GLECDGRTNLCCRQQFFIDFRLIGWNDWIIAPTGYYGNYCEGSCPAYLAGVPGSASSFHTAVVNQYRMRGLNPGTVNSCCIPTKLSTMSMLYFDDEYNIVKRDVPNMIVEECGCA

BMP9 [6] = biological target: T6, BMP9 (UniProt Q9UK05); assay: SPR (Biacore), worded summary of the table
T6 sequence (looked up): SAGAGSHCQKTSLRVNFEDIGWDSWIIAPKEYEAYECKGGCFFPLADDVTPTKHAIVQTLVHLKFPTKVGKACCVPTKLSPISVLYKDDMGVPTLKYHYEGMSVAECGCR

BMP5 [7] = biological target: T7, BMP5 (UniProt P22003 317-454, limits assumed); assay: SPR (Biacore), worded summary of the table
T7 sequence (looked up): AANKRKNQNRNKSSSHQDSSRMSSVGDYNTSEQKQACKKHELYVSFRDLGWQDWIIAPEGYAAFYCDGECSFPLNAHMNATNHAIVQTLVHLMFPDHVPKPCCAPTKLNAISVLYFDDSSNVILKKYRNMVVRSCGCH

GDF8 [8] = biological target: T8, GDF8 (UniProt O14793); assay: SPR (Biacore), worded summary of the table
T8 sequence (looked up): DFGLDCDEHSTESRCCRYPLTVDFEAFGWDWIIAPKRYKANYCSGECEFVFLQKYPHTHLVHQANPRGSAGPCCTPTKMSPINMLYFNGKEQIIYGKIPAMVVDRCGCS

GDF11 [9] = biological target: T1, GDF11; assay: SPR (Biacore), legend of FIG. 6
BMP6 [10] = biological target: T2, BMP6; assay: SPR (Biacore), legend of FIG. 6
BMP10 [11] = biological target: T3, BMP10; assay: SPR (Biacore), legend of FIG. 6
GDF3 [12] = biological target: T4, GDF3; assay: SPR (Biacore), legend of FIG. 6
activin B [13] = biological target: T5, activin B; assay: SPR (Biacore), legend of FIG. 6
BMP9 [14] = biological target: T6, BMP9; assay: SPR (Biacore), legend of FIG. 6
BMP5 [15] = biological target: T7, BMP5; assay: SPR (Biacore), legend of FIG. 6
GDF8 [16] = biological target: T8, GDF8; assay: SPR (Biacore), legend of FIG. 6

binding (GDF11 [1]): binds
binding (BMP6 [2]): binds
binding (BMP10 [3]): binds
binding (GDF3 [4]): binds
binding (activin B [5]): binds
binding (BMP9 [6]): binds
binding (BMP5 [7]): binds
binding (GDF8 [8]): binds
binding (GDF11 [9]): binds
binding (BMP6 [10]): binds
binding (BMP10 [11]): binds
binding (GDF3 [12]): binds
binding (activin B [13]): binds
binding (BMP9 [14]): binds
binding (BMP5 [15]): binds
binding (GDF8 [16]): binds
B1: ActRIIB-Fc homodimer (Fc fusion)
chain: GRGEAETRECIYYNANWELERTNQSGLERCEGEQDKRLHCYASWRNSSGTIELVKKGCWLDDFNCYDRQECVATEENPQVYFCCCEGNFCNERFTHLPEAGGPEVTYEPPPTAPT
notes: also called ActRIIB-Fc homodimeric complex; ActRIIB homodimer; not shown: linker and Fc domain of the homodimer

— patent US20220289852A1 (ACCELERON PHARMA, published 2022)
